For 19 molecules, binding results are on record in article doi:10.1101/2020.07.20.211441.

Protein sequences, listed by entry. Tags and fused reporters are not part of them.
UniProt Q8BZQ7: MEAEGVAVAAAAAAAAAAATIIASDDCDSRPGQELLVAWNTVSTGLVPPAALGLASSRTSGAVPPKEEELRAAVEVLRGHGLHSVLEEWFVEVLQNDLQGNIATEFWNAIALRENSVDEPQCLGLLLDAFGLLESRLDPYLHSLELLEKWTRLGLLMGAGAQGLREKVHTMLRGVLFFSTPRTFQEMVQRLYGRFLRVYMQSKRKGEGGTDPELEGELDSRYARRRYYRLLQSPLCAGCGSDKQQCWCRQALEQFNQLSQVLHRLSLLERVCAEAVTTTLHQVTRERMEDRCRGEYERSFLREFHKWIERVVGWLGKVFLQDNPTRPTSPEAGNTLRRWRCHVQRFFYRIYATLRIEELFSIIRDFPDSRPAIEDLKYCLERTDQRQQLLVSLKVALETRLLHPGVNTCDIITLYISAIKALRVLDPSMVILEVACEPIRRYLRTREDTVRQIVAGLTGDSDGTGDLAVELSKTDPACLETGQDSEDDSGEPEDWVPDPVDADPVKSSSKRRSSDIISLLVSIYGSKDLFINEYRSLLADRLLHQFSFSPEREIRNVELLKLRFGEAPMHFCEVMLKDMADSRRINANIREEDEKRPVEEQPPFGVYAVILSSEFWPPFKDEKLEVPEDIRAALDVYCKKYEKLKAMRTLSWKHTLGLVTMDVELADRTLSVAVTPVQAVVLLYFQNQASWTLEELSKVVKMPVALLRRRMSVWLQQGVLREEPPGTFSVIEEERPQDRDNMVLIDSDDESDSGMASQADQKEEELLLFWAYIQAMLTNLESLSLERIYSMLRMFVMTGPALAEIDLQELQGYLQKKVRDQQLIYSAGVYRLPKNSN
UniProt Q9R1K5: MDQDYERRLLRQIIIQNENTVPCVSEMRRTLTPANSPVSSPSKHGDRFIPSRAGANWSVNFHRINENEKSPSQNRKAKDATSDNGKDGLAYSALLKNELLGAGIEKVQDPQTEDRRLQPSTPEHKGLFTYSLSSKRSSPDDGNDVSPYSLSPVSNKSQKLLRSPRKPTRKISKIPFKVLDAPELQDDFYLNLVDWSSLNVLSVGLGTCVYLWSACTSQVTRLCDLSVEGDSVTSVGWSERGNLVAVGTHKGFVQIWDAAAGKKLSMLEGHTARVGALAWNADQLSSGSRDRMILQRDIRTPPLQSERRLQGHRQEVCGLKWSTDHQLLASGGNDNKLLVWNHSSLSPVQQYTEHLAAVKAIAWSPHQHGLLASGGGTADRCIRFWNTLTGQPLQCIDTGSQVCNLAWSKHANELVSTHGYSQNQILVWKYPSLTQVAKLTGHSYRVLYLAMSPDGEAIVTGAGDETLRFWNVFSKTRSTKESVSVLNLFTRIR
UniProt Q91W96: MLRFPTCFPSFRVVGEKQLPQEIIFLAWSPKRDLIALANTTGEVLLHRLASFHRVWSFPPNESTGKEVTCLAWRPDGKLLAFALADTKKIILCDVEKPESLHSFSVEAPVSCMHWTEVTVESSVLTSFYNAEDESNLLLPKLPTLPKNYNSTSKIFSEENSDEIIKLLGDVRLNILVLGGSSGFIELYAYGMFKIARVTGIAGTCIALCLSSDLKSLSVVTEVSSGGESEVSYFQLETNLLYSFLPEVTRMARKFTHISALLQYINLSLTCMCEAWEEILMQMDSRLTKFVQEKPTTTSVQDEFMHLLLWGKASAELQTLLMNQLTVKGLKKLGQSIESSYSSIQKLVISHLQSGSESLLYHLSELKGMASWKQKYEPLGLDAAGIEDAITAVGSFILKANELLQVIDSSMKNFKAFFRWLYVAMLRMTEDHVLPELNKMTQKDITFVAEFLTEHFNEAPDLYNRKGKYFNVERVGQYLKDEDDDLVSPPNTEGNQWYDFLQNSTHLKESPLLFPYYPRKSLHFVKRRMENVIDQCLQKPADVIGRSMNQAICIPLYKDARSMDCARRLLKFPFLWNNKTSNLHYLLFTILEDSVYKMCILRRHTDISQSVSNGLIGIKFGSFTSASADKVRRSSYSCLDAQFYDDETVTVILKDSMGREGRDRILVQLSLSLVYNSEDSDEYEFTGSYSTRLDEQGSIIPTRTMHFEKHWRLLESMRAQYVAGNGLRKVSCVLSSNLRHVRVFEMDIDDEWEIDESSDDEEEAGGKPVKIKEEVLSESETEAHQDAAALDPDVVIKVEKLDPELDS
UniProt Q9WVM3: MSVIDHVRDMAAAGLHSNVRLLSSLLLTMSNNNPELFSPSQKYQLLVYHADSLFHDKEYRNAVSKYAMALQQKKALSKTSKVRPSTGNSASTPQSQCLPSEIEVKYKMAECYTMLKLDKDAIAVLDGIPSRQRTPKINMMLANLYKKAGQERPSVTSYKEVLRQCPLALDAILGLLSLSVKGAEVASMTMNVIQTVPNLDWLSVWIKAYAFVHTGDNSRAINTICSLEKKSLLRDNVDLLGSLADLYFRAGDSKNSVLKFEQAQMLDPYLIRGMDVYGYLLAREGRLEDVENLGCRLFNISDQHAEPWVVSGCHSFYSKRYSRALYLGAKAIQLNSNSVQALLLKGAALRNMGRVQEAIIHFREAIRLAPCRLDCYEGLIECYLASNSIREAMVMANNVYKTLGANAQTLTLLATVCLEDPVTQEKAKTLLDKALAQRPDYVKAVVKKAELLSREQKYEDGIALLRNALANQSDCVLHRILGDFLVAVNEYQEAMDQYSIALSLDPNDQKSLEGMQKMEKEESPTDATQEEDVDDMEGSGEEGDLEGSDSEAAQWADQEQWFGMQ
UniProt Q99KP6: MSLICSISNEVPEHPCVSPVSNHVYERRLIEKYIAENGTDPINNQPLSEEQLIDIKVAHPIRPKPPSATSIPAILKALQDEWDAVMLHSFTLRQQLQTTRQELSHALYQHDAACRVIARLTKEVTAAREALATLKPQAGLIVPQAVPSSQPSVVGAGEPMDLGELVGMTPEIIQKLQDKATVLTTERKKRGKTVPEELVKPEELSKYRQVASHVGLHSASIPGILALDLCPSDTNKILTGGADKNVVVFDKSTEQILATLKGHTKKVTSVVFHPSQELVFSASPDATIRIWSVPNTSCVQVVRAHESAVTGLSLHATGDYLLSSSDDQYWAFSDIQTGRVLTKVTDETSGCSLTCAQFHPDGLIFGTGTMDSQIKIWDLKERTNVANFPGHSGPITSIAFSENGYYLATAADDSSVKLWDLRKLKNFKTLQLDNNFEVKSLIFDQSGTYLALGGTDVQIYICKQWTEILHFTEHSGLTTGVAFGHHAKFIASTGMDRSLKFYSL
UniProt Q8BTZ4: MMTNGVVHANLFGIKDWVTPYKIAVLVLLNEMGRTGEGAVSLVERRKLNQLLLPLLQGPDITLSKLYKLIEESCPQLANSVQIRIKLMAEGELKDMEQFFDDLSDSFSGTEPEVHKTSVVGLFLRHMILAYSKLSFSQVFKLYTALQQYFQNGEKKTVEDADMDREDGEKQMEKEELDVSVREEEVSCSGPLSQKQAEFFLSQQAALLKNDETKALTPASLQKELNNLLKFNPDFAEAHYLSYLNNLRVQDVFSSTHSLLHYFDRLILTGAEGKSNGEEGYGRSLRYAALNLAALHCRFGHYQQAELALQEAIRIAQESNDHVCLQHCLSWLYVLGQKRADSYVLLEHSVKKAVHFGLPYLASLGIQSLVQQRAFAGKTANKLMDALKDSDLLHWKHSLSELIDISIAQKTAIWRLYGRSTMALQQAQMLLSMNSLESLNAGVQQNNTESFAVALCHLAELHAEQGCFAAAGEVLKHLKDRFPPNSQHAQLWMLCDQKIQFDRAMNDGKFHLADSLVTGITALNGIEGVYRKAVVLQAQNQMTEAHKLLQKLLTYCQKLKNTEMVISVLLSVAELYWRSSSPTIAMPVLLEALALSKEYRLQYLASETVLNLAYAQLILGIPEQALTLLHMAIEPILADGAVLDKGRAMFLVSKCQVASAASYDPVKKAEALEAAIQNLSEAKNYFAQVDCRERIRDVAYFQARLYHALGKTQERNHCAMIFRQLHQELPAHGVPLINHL
UniProt Q8BGZ4: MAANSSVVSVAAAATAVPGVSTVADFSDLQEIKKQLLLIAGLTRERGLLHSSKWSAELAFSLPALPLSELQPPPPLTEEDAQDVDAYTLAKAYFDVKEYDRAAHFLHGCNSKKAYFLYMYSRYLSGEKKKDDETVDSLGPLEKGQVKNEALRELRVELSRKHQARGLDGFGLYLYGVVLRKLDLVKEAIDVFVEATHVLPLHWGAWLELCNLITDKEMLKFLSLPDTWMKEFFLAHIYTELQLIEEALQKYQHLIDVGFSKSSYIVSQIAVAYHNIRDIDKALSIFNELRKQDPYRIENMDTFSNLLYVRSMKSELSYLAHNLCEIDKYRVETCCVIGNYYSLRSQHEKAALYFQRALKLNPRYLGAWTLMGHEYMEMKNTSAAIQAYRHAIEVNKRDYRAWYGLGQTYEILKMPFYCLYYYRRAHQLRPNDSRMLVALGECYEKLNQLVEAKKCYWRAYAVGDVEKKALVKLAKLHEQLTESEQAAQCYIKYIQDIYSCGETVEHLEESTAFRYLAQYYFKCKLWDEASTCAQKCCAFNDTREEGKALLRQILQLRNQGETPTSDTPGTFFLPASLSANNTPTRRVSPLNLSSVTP
UniProt Q9CW03: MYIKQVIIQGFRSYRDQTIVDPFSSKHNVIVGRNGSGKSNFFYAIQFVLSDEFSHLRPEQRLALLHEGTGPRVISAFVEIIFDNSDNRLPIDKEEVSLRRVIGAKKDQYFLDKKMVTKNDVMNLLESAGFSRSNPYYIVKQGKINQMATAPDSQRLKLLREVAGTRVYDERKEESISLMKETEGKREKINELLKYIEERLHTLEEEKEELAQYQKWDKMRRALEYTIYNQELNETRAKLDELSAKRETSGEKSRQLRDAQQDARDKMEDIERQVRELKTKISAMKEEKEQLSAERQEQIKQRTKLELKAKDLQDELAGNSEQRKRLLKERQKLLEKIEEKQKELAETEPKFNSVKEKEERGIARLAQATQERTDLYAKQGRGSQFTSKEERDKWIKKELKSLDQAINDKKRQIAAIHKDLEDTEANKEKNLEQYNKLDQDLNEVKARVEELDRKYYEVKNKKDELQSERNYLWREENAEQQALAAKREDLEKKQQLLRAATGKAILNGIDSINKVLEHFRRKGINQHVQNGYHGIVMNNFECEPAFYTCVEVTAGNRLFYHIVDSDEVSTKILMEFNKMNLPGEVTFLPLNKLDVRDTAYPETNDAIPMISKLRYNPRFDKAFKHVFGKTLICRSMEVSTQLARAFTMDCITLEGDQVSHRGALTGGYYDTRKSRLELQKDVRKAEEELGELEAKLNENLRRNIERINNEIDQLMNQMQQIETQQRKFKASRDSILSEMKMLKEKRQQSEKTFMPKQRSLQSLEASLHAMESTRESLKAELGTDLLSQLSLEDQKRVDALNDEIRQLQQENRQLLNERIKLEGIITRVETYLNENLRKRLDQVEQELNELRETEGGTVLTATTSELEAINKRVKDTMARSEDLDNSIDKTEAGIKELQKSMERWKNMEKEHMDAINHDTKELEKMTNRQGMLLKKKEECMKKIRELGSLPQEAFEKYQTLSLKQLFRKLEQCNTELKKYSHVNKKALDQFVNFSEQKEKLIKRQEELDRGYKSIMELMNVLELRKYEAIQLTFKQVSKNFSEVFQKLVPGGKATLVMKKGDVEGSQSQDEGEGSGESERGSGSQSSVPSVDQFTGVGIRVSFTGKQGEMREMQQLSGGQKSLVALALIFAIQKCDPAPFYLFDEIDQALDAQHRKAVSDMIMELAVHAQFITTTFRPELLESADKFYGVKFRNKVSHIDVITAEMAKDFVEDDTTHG
UniProt A2A6Q5: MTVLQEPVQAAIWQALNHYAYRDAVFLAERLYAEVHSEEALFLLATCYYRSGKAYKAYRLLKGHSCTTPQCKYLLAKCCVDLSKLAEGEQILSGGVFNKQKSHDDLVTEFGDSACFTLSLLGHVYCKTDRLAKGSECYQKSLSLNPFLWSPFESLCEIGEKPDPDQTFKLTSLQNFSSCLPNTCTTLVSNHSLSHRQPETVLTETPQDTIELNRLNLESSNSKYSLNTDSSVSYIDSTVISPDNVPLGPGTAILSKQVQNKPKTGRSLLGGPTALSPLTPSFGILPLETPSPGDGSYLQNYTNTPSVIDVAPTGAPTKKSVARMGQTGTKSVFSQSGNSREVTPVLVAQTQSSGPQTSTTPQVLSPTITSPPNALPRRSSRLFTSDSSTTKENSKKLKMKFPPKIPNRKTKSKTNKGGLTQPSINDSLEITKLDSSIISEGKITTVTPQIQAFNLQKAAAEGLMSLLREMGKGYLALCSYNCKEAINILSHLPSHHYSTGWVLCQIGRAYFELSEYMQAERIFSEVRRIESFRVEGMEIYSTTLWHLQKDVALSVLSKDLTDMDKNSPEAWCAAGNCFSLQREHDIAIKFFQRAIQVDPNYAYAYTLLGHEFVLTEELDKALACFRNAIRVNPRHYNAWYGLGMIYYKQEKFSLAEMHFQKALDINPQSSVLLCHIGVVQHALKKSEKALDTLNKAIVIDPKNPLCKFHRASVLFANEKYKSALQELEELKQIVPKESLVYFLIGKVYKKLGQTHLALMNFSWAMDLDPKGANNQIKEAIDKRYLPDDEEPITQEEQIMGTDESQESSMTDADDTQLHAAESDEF

No constants are given. Whether binding was seen depends on the method and setting. Binding seen in cells or lysates may run through a third protein. These calls come from enrichment with a bait or labelling near it, and not all partners need be listed. Where a sequence is shown, tags or fusion partners need not be part of it.

T1: XPA-binding protein (XAB)-2, biotin-tagged knock-in (mouse) (UniProt Q9DCD2)
T1 sequence (chain, biotin on the Avitag (by the BirA ligase in vivo)): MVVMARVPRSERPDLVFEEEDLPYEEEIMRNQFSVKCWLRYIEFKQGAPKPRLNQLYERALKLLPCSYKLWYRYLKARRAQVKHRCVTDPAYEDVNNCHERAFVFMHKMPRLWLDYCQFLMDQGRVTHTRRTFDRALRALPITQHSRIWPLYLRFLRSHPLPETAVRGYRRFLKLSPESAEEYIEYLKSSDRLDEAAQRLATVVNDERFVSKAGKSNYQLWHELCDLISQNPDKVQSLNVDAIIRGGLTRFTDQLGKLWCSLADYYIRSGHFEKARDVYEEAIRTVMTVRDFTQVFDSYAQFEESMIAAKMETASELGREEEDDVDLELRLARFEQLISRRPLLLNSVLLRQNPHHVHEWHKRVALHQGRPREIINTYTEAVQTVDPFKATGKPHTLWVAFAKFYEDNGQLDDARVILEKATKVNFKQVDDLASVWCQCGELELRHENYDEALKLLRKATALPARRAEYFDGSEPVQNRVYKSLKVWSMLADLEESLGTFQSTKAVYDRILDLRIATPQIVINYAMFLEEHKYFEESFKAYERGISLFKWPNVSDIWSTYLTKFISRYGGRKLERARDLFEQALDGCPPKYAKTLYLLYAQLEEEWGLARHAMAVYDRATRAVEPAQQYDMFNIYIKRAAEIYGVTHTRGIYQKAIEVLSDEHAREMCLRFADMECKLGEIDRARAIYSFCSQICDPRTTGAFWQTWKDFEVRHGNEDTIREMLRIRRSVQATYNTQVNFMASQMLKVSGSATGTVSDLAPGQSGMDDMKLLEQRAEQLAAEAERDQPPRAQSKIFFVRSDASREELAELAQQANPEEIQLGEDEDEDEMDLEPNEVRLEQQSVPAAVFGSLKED

B1: NUP153 (protein, UniProt E9Q3G8 1-1462)
chain: MASEAGGIGGGGGGGKIRTRRCHQGPVKPYQQGRPQHQGILSRVTESVKNIVPGWLQRYFNKSENACSCSPDADEVPPWPENREDEHAIYADENTNTDDGRITPDPAGSNTEEPSTTSTASNYPDVLTRPSLHRSHLNFSVLESPALHCQPSTSSAFPIGSSGFSLVKEIKDSTSQHDDDNISTTSGFSSRASEKDIAVSKNTSLPPLWSPEAERSHSLSQHTAISSKKPAFNLSAFGTLSTSLGNSSILKTSQLGDSPFYPGKTTYGGAAAAVRQNKVRSTPYQAPVRRQMKAKQLNAQSYGVTSSTARRILQSLEKMSSPLADAKRIPSAVSSPLNSPLDRSGIDNTVFQAKKEKVDSQYPPVQRLMTPKPVSIATNRTVYFKPSLTPSGDLRKTNQRIDKKNSTVDEKSISRQNREQESGFSYPNFSIPAANGLSSGVGGGGGKMRRERTHFVAPKPPENEEVEAPLLPQISLPISSSSLPTFSFSSPVTSASPSPVSSSQPLPNKVQMTSLGSTGSPVFTFSSPIVKSTQAAVLPPASIGFTFSVPLAKTEFSGSNSSSETVLSSSAQDITAVNSSSYKKRSAPCEDPFTPAKILREGSVLDILKTPGFASPKVDSPALQPTTTSSIVYTRPAISTFSSSGIEYGESLKAGSSWQCDTCLLQNKVTDNKCIACQAAKLPLKETAKQTGTGTPSKSDKPASTSGTGFGDKFKPAIGTWDCDTCLVQNKPEAVKCVACETPKPGTGVKRALTLTVASESPVTASSSTTVTTGTLGFGDKFKRPVGSWECPVCCVCNKAEDNRCVSCTSEKPGLVSASSSSPAPVSLSSGGCLGLDKFKKPEGSWDCEVCLVQNKADSAKCIACESAKPGTKSEFKGFGTSSSLNPAPSAFKFGIPSSSSGLSQTLTSTGNFKFGDQGGFKLGTSSDSGSTNTMNTNFKFSKPTGDFKFGVLSDSKPEEVKNDNKNDNFQFGSSSGLTNPASSAPFQFGVSTLGQQEKKEELPKSSPAGFSFGAGVNNPPNAAIDTTATSENKSGFNFGTLDTKSVSVTPFTYKTTEAKKEDAPATKGGFTFGKVGSSSLPSSSMFVLGRTEEKQQEPVTSTSLVFGKKADSEEPKCQPVFSFGNSEQTKDESSKPTFSFSVAKPSGKESEQLAKATFAFGNQTNTTTDQGAAKPVFSFLNSSSSSSSAPATSSSGGIFGSSTSSSNPPVAAFVFGQASNPVSSSAFGNAAESSTSQSLLFPQESEPATTSSTAPAASPFVFGTGASSNSVSSGFTFGATTTSSSSGSSFVFGTGHSAPSASPAFGANQTPTFGQSQGASQPNPPSFGSISSSTALFSAGSQPVPPPIFGTVSSSSQPPVFGQQPSQSAFGSGTANASSVFQFGSSTTNFNFTNNNPSGVFTFGASPSTPAASAQPSGSGVFSFSQSPASFTVGSNGKNMFSSSGTSVSGRKIKTAVRRKK
B2: NUP160 (protein, UniProt Q9Z0W3 1-1402)
chain: MAAAGSLERSFVELSGAERERPRHFREFTVCDIGTASAAFGTVKYSESAGGFYYVESGKLFSITRNRFIHWKTSGDTLELVEESLDLNLLNNAVRLKFQNYNILPGGVHVSETQNHVIILILTNQTVHRLILPHPSRMYRSELVTESQMQSIFTDIGKVDFRDPCNSQLIPSVPGLSPGSTTSAAWLSSDGEALFALPSASGGIFVLKLPPYDVPGIASVVELKQSSVMQRLLTGWMPTAIRGDHGPSDRALSLAVHCVEHDAFIFALCQDHKLRMWSYKDQMCLMVADMLEYVPVNKDLRLTAGTGHKLRLAYSPSMGLYLGIYMHAPKRGQFCVFQLVSTENNRYSLDHISSLFTSQETLVDFALTSTDIWALWHDAENQTIVKYINFEHNVAGQWNPVFMQPLPEEEIVIRDDQDPREMYLRSLFTPGHFINAALCKALQIFCRGTERNLDLSWNELKKEITLAVENELQGSVTEYEFSQDEFRTLQQEFWCKFYACVLQYQEALSHPLALHLNPVTNMVCLLKKGYLSFLVPSSLVDHLYLLPDEHLLTEDETTISDDADVARDVLCLIKCLRMIGESVTMDMAVLMETSCYNLQSPEKAAEHILEDLITIDVENVMEDICSKLQEIRNPVHAIGLLIREMDYETEVEMEKGFDPAQPLNVRMNLSQLYGSSTAGYIVCRGVYKIASTRFLICRDLLILQQLLTRLGDAVILGAGQLFQAQQDLLHRTAPLLLSYYLIKWASQCLATDVPVDTLESNLQHLSVLELTDSGALMANKLVSSPQTIMELFFQEVARKQIISHLFSQPKAPLSQTGLNWPEMITAVTGYLLQLLWPSNPGCLFLECLMGNCQYVQLQDYIQLLHPWCQVNVGSCRFMLGRCYLVTGEVQKALECFCQAASEVGKEEFLDRLIRSEDGEIVSTPKLQYYDKVLRLLDVVGLPELVIQLATSAITEAGDDWKSQATLRTCIFKHHLDLGHNSQAYEALTQIPDSSRQLDCLRQLVVVLCERSQLQDLVEFPYVNLHNEVVGIIESRARAVDLMTHNYYELLYAFHIYRHNYRKAGTVMFEYGMRLGREVRTLRGLEKQGNCYLAAINCLRLIRPEYAWIVQPASGAVSDRPGASPKRNHDGECTAAPTNRQIEILELEDLEKEYSLARIRLTLARHDPSVIAIAGSSSAKEMSALLVQAGLFDTAISLCQTFTLPLTPVFEGLAFKCIKLQFGGEAAQGEAWSWLATNQLSSVITTKESSATDEAWRLLSTYLERYKVQNNLYHHCVINKLLSHGVPLPNWLINSYKKVDAAELLRLYLNYDLLEEAVDLVSEYVDAVLGKGHQYFGIEFPLSATAPMVWLPYSSIDQLLQALGENSANSHNIILSQKILDKLEDYQQKVDKATRDLLYRRDL
B3: NUP50 (protein, UniProt Q9JIH2 1-466)
chain: MAKRVAEKELTDRNWDEEDEVEEMGTFSVASEEVMKNRAVKKAKRRNVGFESDSGGAFKGFKGLVVPSGGGGFSGFGGSGGKPLEGLTNGNSTDNATPFSNVKTAAEPKAAFGSFAVNGPTTLVDKKISSPKCNNSNQPPSSGPASSTACPGNAYHKQLAGLNCSVRDWIVKHVNTNPLCDLTPIFKDYERYLATIEKQLENGGGSSSESQTDRATAGMEPPSLFGSTKLQQESPFSFHGNKAEDTSEKVEFTAEKKSDAAQGATSASFSFGKKIESSALGSLSSGSLTGFSFSAGSSSLFGKDAAQSKAASSLFSAKASESPAGGGSSECRDGEEEENDEPPKVVVTEVKEEDAFYSKKCKLFYKKDNEFKEKGVGTLHLKPTATQKTQLLVRADTNLGNILLNVLIAPNMPCTRTGKNNVLIVCVPNPPLDEKQPTLPATMLIRVKTSEDADELHKILLEKKDA
B4: NUP133 (protein, UniProt Q8R0G9 1-1155)
chain: MFPSVSSPRTPGPGTRRGPLVGIGPTSTPRASRRGLSLGSAVNSPVLFSPAGRRSSVSSRGTPTRIFPHHSISESVNYDVRVFGSSLPVKIMEALTMAEADEQLSVHVDEGGWACLVCTEKLLIWKIAVSPVTKLSVCKELQLPPSDFHGSADLVALSYAATSGEVHSVQAVSVMVATKEGSIRYWPSLAREDTYSDTCVDLGGEKMCRFLTAVQGGSFILSSVGSQLVRLIPESSGKIHQHVLPQGQGMLSGIGRRVSSLFGILSPTSDLMLASVLWDRGGSSFYTLTSSNISKWELDDSSEKQVHSWDVHRTLKESITDAVWGSESNYEAIKEGVNIQYLDLKQNCDGLLILAAAWHLGDSPCLVYYSVITVEDNGNQMSDAVTVEVTQYNPPFQSEDLIACRLMVPNFSSQMTYLYMENAVFVCSTGTGKFSLPQEKIVFDTQGDGILGAGSCAGVPILFSRNSGLVSVTPRENVSLLAEDLEESLTSSVGGRGSESMVFETTTKNETVAHEDKTKLLKAAFLQYCRKDLGRAQIMADELFSSHTDLDSDPELDKAVTQISVDLIDDYPASDPRWAESVPQEAPGLSNTSLIILHQLEDKMKAHCLLVDFLHQVGLFRRLSSYPIRGTPMSTRLLLCEHAEKLSAAITLKNHHSRLPDLVNSAILLALNKRECEVPNSLTPADVFFREVSQVDTICECLLEHEEQVLREVALVSQEWAEVAIDVNTVLKDMLQAATHYRLNKSSMYSQEEVLGKEPEYVPWTATSGPSGIRTAVMRQHGIILKMVYPQADSKLRNVVMEQLVALIDCFLDSYVSQLKSLEKSSDQERYSSLEVEYLQKRSELLSPLLTLGQYPWAASLAEKYCDFDILVQMCEQTDNQARLQRYMTQFADQNFSDFLFRWYLEKGKRGKLLSQPISQHGQLANFLQAHEHLSWLHEINSQELEKAHTTLLGLANMETRYFAKKKTLLGLSKLAALASDISEDRLQEKIEAMAEQERFLLHQETLPEQLLTERQLSLSAMPVLTAPQLISLYICDENRRANEYDFKKALDLLEYIDEEEDVSIDDLKLEILCRALQRDDWSGSDGKDDPIEVSKDSVFVKILQKLIKDGIQLSEYLPEVTDLLRAEQLGSLKSNSYFEFVLKANYEYYVQGQM

The test concerns the target T1, XPA-binding protein (XAB)-2, biotin-tagged knock-in (mouse). Put plainly: affinity purification with mass spectrometry.
As to NUP210 (from UniProt Q9QY81 27-1886), the binding entry was “binds”.
The same measure for WDR36 (mouse (endogenous in P15 liver)): “binds”; for ANAPC 2 (from UniProt Q8BZQ7 1-837): “binds”.
The same measure for FZR1 (from UniProt Q9R1K5 1-493): “binds”; for ANAPC 4 (from UniProt Q91W96 1-807): “binds”; for ANAPC 7 (from UniProt Q9WVM3 1-565): “binds”.
As to “pre-mRNA-processing factor 19 (from UniProt Q99KP6 1-504)”, the binding entry was “binds”.
For the molecule “NUP205 (mouse (endogenous in P15 liver))”, the binding result is given as “binds”.
Under ANAPC 5 (from UniProt Q8BTZ4 1-740) stands “binds”; under CDC23 (from UniProt Q8BGZ4 1-597), “binds”; under SMC3 (from UniProt Q9CW03 1-1217), “binds”.
For the molecule BMS1 (from UniProt Q6PGF5 1-1284), the binding entry is listed as “binds”.
As for CDC27 (from UniProt A2A6Q5 1-825), the binding entry is reported as “binds”.
Under ANAPC1 (from UniProt P53995 1-1944) stands “binds”.
MDN1 (mouse (endogenous in P15 liver)): the binding result is listed as “binds”.
B1: the binding result is “binds”.
The same measure for B2: “binds”.
Under B3 stands “binds”; under B4, “binds”.
